PubChem BioAssay AID1259405, NCATS – 2018
The whole screen tested about 50,000 reagents; shown is an unselected part. Of all reagents, about 4,000 (8%) were called active. 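Mouse siRNA library applied to hamster cells; one well for each siRNA.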 Entries without a mark were called inactive.

Aim: 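Mouse-designed siRNAs used to find CHO productivity engineering targets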 (primary screen)
Cell system: Chinese hamster CHO-K1 ovary cells with stable secreted eGFP expression
Knock-down reagent: single siRNA against mouse genes, 0.8 pmol siRNA per well (2 µl of 400 nM stock)
Duration: 3 days
Read-out: 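Per-well intracellular GFP measured by laser scanning cytometry, plus viability from ATP luminescence, each relative to plate median of non-targeting control wells, in %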
Reading the numbers: GFP, % of control: higher = more GFP per well, higher productivity; viability (ATP), % of control: higher = more viable cells (more ATP)
Active means: 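Called active when intracellular GFP, relative to negative control, is at or above 120%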

Zfp113 (GeneID 56314) [SID363541132] — GFP, % of control = 50.5; viability (ATP), % of control = 44.6
Zfp113 (GeneID 56314) [SID363555759] — GFP, % of control = 60.4; viability (ATP), % of control = 63.7
Zfp113 (GeneID 56314) [SID363566048] — GFP, % of control = 34.6; viability (ATP), % of control = 69
Syt9 (GeneID 60510) [SID363582561] — GFP, % of control = 90.3; viability (ATP), % of control = 158
Syt9 (GeneID 60510) [SID363584321] — GFP, % of control = 66.4; viability (ATP), % of control = 78.2
Nudt5 (GeneID 53893) [SID363569727] — GFP, % of control = 49.1; viability (ATP), % of control = 81.4
Nudt5 (GeneID 53893) [SID363576767] — GFP, % of control = 65.3; viability (ATP), % of control = 67.3
Nudt5 (GeneID 53893) [SID363578175] — GFP, % of control = 64.4; viability (ATP), % of control = 38.5
Gjb6 (GeneID 14623) [SID363572651] — GFP, % of control = 98.9; viability (ATP), % of control = 61.2
Gjb6 (GeneID 14623) [SID363577931] — GFP, % of control = 85.6; viability (ATP), % of control = 97
Gjb6 (GeneID 14623) [SID363582155] — GFP, % of control = 84.7; viability (ATP), % of control = 98.3
Or5g25 (GeneID 258566) [SID363544662] — GFP, % of control = 63.9; viability (ATP), % of control = 88.1
Or5g25 (GeneID 258566) [SID363550990] — GFP, % of control = 56.4; viability (ATP), % of control = 65.9
Or5g25 (GeneID 258566) [SID363557539] — GFP, % of control = 97.1; viability (ATP), % of control = 103
Gxylt2 (GeneID 232313) [SID363547020] — GFP, % of control = 109; viability (ATP), % of control = 70
Gxylt2 (GeneID 232313) [SID363549832] — GFP, % of control = 61.1; viability (ATP), % of control = 83.4
Gxylt2 (GeneID 232313) [SID363587886] — GFP, % of control = 86.1; viability (ATP), % of control = 112
Raet1b (GeneID 19369) [SID363544975] — GFP, % of control = 90.1; viability (ATP), % of control = 84.4
Raet1b (GeneID 19369) [SID363551303] — GFP, % of control = 90.7; viability (ATP), % of control = 133
Raet1b (GeneID 19369) [SID363557852] — GFP, % of control = 56; viability (ATP), % of control = 78.3
Gkn2 (GeneID 66284) [SID363543671] — GFP, % of control = 32.1; viability (ATP), % of control = 31
Gkn2 (GeneID 66284) [SID363553164] — GFP, % of control = 86.2; viability (ATP), % of control = 86.9
Gkn2 (GeneID 66284) [SID363559012] — GFP, % of control = 115; viability (ATP), % of control = 100
Dph3 (GeneID 105638) [SID363556583] — GFP, % of control = 45.6; viability (ATP), % of control = 41.7
Dph3 (GeneID 105638) [SID363563487] — GFP, % of control = 63.4; viability (ATP), % of control = 55.9
Dph3 (GeneID 105638) [SID363587033] — GFP, % of control = 71.7; viability (ATP), % of control = 88.3
Pdlim3 (GeneID 53318) [SID363541456] — GFP, % of control = 63.9; viability (ATP), % of control = 65.9
Pdlim3 (GeneID 53318) [SID363556083] — GFP, % of control = 38; viability (ATP), % of control = 57.8
Pdlim3 (GeneID 53318) [SID363566372] — GFP, % of control = 30.9; viability (ATP), % of control = 34.3
Tamm41 (GeneID 68971) [SID363540650] — GFP, % of control = 76.3; viability (ATP), % of control = 86.5
Tamm41 (GeneID 68971) [SID363543101] — GFP, % of control = 87.5; viability (ATP), % of control = 68.7
Tamm41 (GeneID 68971) [SID363552594] — GFP, % of control = 52.1; viability (ATP), % of control = 51.3
Cyp2c38 (GeneID 13097) [SID363547694] — GFP, % of control = 94.8; viability (ATP), % of control = 92.6
Cyp2c38 (GeneID 13097) [SID363558463] — GFP, % of control = 116; viability (ATP), % of control = 87.9
Cyp2c38 (GeneID 13097) [SID363560221] — GFP, % of control = 77.8; viability (ATP), % of control = 68.5
Rps6ka2 (GeneID 20112) [SID363547338] — GFP, % of control = 79.8; viability (ATP), % of control = 83.4
Rps6ka2 (GeneID 20112) [SID363558107] — GFP, % of control = 88.1; viability (ATP), % of control = 78.4
Rps6ka2 (GeneID 20112) [SID363559865] — GFP, % of control = 94.2; viability (ATP), % of control = 73.9
Fbxo15 (GeneID 50764) [SID363539843] — GFP, % of control = 106; viability (ATP), % of control = 97.2
Fbxo15 (GeneID 50764) [SID363561144] — GFP, % of control = 90.6; viability (ATP), % of control = 78.4
Fbxo15 (GeneID 50764) [SID363564180] — GFP, % of control = 102; viability (ATP), % of control = 71.5

Not a retest: entries from further up.
Raet1b (GeneID 19369) [SID363544975] — GFP, % of control = 90.1; viability (ATP), % of control = 84.4
Raet1b (GeneID 19369) [SID363551303] — GFP, % of control = 90.7; viability (ATP), % of control = 133
